Consider one molecule from publication PMC12147761 (Journal of medicinal chemistry, 2025).

By UniProt entry, the sequences of proteins in these tests, tags left out. Residues count along the entry.
UniProt Q9NYV4, residues 715-1052: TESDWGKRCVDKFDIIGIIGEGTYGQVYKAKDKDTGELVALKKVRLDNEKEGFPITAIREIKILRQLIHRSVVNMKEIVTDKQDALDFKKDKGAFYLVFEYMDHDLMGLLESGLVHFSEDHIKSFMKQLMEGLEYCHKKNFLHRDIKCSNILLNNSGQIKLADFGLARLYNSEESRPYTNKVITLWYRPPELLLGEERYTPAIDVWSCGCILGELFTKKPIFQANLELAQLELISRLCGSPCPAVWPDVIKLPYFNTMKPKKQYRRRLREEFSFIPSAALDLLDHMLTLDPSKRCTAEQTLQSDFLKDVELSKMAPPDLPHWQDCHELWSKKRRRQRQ

The target in this assay is kinase domain of human CDK12 (residues 715-1052) (human) (UniProt Q9NYV4). As to the kind of experiment: crystal structure; purified CDK12/CycK complex (10 mg/ml; 25 mM HEPES pH 7.5, 150 mM NaCl, 1 mM TCEP) incubated with YJZ5118 30 min on ice; hanging drop at 291 K, 0.1 M Bis-Tris pH 5.8, 21.5% PEG 3350, 0.4 M MgCl2; both purified.

Results are given in words; binding and its absence hold for the method and conditions named. Some entries that bind do so weakly or less than the wild type.

B1: cyclin box domain of human Cyclin K (residues 1-267) (domain or fragment, UniProt O75909 1-267)
chain: MKENKENSSPSVTSANLDHTKPCWYWDKKDLAHTPSQLEGLDPATEARYRREGARFIFDVGTRLGLHYDTLATGIIYFHRFYMFHSFKQFPRYVTGACCLFLAGKVEETPKKCKDIIKTARSLLNDVQFGQFGDDPKEEVMVLERILLQTIKFDLQVEHPYQFLLKYAKQLKGDKNKIQKLVQMAWTFVNDSLCTTLSLQWEPEIIAVAVMYLAGRLCKFEIQEWTSKPMYRRWWEQFVQDVPVDVLEDICHQILDLYSQGKQQMPH
In the case of B1, the binding entry is recorded as “binds”.
